PubChem BioAssay AID1259405 – NCATS | 2018

Assay: 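Mouse-designed siRNAs used to find CHO productivity engineering targets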 (primary screen)
Cells: Chinese hamster CHO-K1 ovary cells with stable secreted eGFP expression
Reagents: single siRNA against mouse genes, 0.8 pmol siRNA per well (2 µl of 400 nM stock)
Timing: 3 days
Measured: 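Percent of the per-plate non-targeting control median for intracellular GFP per well by laser scanning cytometry and for cell viability by ATP luminescence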
Scale: GFP, % of control: higher = more GFP per well, higher productivity; viability (ATP), % of control: higher = more viable cells (more ATP)
Active means: 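Called active when intracellular GFP, relative to negative control, is at or above 120%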
Here is an unselected part of about 50,000 reagents. Of all reagents, about 4,000 (8%) were called active. 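Mouse siRNA library applied to hamster cells; one well for each siRNA.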 No sequences are given here.

gene knocked down	PubChem SID	GFP, % of control	viability (ATP), % of control	activity call
Stradb (GeneID 227154)	SID363570962	78.2	79.3	inactive
Srf (GeneID 20807)	SID363573872	63	56.2	inactive
Srf (GeneID 20807)	SID363581616	90.7	84.9	inactive
Srf (GeneID 20807)	SID363584080	34.5	61.8	inactive
Edem1 (GeneID 192193)	SID363541722	78.8	87.6	inactive
Edem1 (GeneID 192193)	SID363553314	90.9	84.3	inactive
Edem1 (GeneID 192193)	SID363566638	94.7	49.5	inactive
Apoa5 (GeneID 66113)	SID363574713	89.5	103	inactive
Apoa5 (GeneID 66113)	SID363575769	181	72.2	active
Apoa5 (GeneID 66113)	SID363580345	56.3	57.3	inactive
Epm2a (GeneID 13853)	SID363547625	58.7	59.8	inactive
Epm2a (GeneID 13853)	SID363558394	55.5	75.8	inactive
Epm2a (GeneID 13853)	SID363560152	62.6	82.3	inactive
Impg2 (GeneID 224224)	SID363553868	68.2	71.9	inactive
Impg2 (GeneID 224224)	SID363561825	99.1	104	inactive
Impg2 (GeneID 224224)	SID363565563	69.9	65.8	inactive
Sppl2b (GeneID 73218)	SID363571190	108	64.3	inactive
Sppl2b (GeneID 73218)	SID363571542	99.2	47.4	inactive
Sppl2b (GeneID 73218)	SID363571894	147	80.2	active
Zc3hc1 (GeneID 232679)	SID363581915	51.3	63.4	inactive
Zc3hc1 (GeneID 232679)	SID363589409	102	91.8	inactive
Myo5a (GeneID 17918)	SID363572176	79.2	63.7	inactive
Myo5a (GeneID 17918)	SID363573936	63.2	67	inactive
Prkd2 (GeneID 101540)	SID363570921	85.3	83.2	inactive
Prkca (GeneID 18750)	SID363569856	109	64.4	inactive
Prkca (GeneID 18750)	SID363576896	89	91.5	inactive
Prkca (GeneID 18750)	SID363578304	121	98.3	active
Bptf (GeneID 207165)	SID363545420	67.6	34.5	inactive
Bptf (GeneID 207165)	SID363548933	82.4	75.6	inactive
Bptf (GeneID 207165)	SID363562739	48.5	42.2	inactive
Kics2 (GeneID 270802)	SID363546976	164	71.9	active
Kics2 (GeneID 270802)	SID363549788	94.1	61.2	inactive
Kics2 (GeneID 270802)	SID363587842	120	109	inactive
Pmfbp1 (GeneID 56523)	SID363554789	59	54.1	inactive
Pmfbp1 (GeneID 56523)	SID363568236	53.8	44.1	inactive
Pmfbp1 (GeneID 56523)	SID363586295	81.6	90	inactive
Zfp711 (GeneID 245595)	SID363573417	80.5	84.5	inactive
Zfp711 (GeneID 245595)	SID363588656	44.6	62.8	inactive
Ttc8 (GeneID 76260)	SID363545310	91.8	121	inactive
Ttc8 (GeneID 76260)	SID363548823	50.8	63.2	inactive
Ttc8 (GeneID 76260)	SID363562629	82.3	51	inactive
Slco6b1 (GeneID 67854)	SID363575195	101	91.2	inactive
Slco6b1 (GeneID 67854)	SID363580827	78.3	70.1	inactive
Slco6b1 (GeneID 67854)	SID363582939	87.3	82	inactive
Insig1 (GeneID 231070)	SID363540395	38.3	53.6	inactive
Insig1 (GeneID 231070)	SID363542147	33.3	56.5	inactive
Insig1 (GeneID 231070)	SID363567063	87.7	74.2	inactive
Hoxd11 (GeneID 15431)	SID363569621	101	52.4	inactive
Hoxd11 (GeneID 15431)	SID363577365	112	97.5	inactive
Hoxd11 (GeneID 15431)	SID363578773	121	87.4	active
Ccnk (GeneID 12454)	SID363555358	136	106	active
Ccnk (GeneID 12454)	SID363564019	126	63	active
Ccnk (GeneID 12454)	SID363587565	94.9	96.1	inactive
Nfasc (GeneID 269116)	SID363573517	95.8	80.2	inactive
Nfasc (GeneID 269116)	SID363588756	67.4	67.5	inactive
Bahcc1 (GeneID 268515)	SID363569383	81.6	92.4	inactive
Bahcc1 (GeneID 268515)	SID363577127	116	92.7	inactive
Bahcc1 (GeneID 268515)	SID363578535	75.8	77.1	inactive
Tnpo3 (GeneID 320938)	SID363574600	70.9	57.7	inactive
Tnpo3 (GeneID 320938)	SID363575656	57.1	56.1	inactive
Tnpo3 (GeneID 320938)	SID363580232	101	101	inactive
Tmbim6 (GeneID 110213)	SID363556446	70.4	116	inactive
Tmbim6 (GeneID 110213)	SID363586896	70.2	118	inactive
Tmbim6 (GeneID 110213)	SID363589004	75.9	138	inactive
Ccdc90b (GeneID 66365)	SID363543542	74.8	78.6	inactive
Ccdc90b (GeneID 66365)	SID363553035	80.9	112	inactive
Ccdc90b (GeneID 66365)	SID363558883	60.7	76	inactive
Tmem184a (GeneID 231832)	SID363547722	110	98.7	inactive
Tmem184a (GeneID 231832)	SID363558491	35.9	40.8	inactive
Tmem184a (GeneID 231832)	SID363560249	70.5	63.2	inactive
Ctu1 (GeneID 233189)	SID363547040	75.3	74.3	inactive
Ctu1 (GeneID 233189)	SID363549852	77.1	103	inactive
Ctu1 (GeneID 233189)	SID363587906	103	134	inactive
Ube2j1 (GeneID 56228)	SID363572816	63	65.7	inactive
Ube2j1 (GeneID 56228)	SID363578096	108	120	inactive
Ube2j1 (GeneID 56228)	SID363582320	46.7	80.1	inactive
Prc1 (GeneID 233406)	SID363572255	54.1	84.7	inactive
Prc1 (GeneID 233406)	SID363574015	73.9	83.6	inactive
Lsm8 (GeneID 76522)	SID363569921	42.8	62.7	inactive
Lsm8 (GeneID 76522)	SID363576961	105	105	inactive
Lsm8 (GeneID 76522)	SID363578369	67.8	84.8	inactive
N4bp1 (GeneID 80750)	SID363546637	84.5	65.4	inactive
N4bp1 (GeneID 80750)	SID363548393	79	71	inactive
N4bp1 (GeneID 80750)	SID363560571	68.4	75.3	inactive

Hits, among the entries above:
gene knocked down	PubChem SID	GFP, % of control	viability (ATP), % of control	activity call
Apoa5 (GeneID 66113)	SID363575769	181	72.2	active
Sppl2b (GeneID 73218)	SID363571894	147	80.2	active
Prkca (GeneID 18750)	SID363578304	121	98.3	active
Kics2 (GeneID 270802)	SID363546976	164	71.9	active
Hoxd11 (GeneID 15431)	SID363578773	121	87.4	active
Ccnk (GeneID 12454)	SID363555358	136	106	active
Ccnk (GeneID 12454)	SID363564019	126	63	active
